Values of other authors, collected in patent publication US9067940B2, “Alicyclic derivatives of N,N'-substituted 3,7-diazabicyclo[3.3.1]nonanes and medicaments based thereon” (priority 2011, dated 2015).
For at least one compound, name, drawing or mass did not settle the structure.

Columns and labels:
AMPA receptors [1] = conditions: in vivo
AMPA receptors [2] = conditions: human patients, supplementary to antipsychotics in schizophrenia

## O=C(c1ccc2nccnc2c1)N1CCCCC1 [CX516]
AMPA receptors [1]
  cognitive status in schizophrenia: improvement in cognitive status
AMPA receptors [2]
  general condition and cognitive status of patients compared with placebo: did not observe a significant improvement
